Paper PMC9551088
These are yes or no findings as the source states them, for the method shown. Binding seen in cells or lysates may run through a third protein. Some binding calls cover weakened binding; strength is not graded here. One block for each substance: values may come before it.

Amino acid sequences for entries named in this document (tags omitted).
UniProt Q8C6L5: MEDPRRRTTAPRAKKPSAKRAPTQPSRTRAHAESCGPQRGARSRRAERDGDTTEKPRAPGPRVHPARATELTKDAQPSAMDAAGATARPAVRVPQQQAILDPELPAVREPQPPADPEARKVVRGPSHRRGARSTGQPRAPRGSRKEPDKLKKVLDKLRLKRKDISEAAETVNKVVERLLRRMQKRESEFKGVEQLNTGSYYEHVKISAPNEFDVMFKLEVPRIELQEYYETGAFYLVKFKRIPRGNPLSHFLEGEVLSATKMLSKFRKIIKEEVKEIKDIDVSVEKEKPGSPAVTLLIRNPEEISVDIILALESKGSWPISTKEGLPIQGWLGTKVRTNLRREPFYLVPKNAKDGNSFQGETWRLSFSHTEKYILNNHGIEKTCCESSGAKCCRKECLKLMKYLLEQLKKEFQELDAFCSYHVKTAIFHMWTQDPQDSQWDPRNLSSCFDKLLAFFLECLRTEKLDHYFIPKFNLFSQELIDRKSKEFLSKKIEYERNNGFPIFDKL
UniProt Q9Y4X5: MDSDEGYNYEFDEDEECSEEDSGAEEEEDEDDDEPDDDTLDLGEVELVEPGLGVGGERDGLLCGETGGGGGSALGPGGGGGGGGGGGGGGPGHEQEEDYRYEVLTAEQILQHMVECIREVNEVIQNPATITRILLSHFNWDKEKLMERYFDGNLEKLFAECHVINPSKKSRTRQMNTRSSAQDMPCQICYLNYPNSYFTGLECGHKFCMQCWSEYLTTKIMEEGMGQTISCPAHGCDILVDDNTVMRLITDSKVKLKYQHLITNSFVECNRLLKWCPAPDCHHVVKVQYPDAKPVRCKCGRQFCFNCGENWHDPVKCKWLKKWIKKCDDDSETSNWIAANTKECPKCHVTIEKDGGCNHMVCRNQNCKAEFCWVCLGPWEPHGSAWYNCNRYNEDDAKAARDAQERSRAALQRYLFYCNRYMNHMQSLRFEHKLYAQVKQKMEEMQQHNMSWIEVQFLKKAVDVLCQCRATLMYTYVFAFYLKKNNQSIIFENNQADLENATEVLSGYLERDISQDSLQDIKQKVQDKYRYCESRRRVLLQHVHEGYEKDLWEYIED
UniProt Q9Z1K5: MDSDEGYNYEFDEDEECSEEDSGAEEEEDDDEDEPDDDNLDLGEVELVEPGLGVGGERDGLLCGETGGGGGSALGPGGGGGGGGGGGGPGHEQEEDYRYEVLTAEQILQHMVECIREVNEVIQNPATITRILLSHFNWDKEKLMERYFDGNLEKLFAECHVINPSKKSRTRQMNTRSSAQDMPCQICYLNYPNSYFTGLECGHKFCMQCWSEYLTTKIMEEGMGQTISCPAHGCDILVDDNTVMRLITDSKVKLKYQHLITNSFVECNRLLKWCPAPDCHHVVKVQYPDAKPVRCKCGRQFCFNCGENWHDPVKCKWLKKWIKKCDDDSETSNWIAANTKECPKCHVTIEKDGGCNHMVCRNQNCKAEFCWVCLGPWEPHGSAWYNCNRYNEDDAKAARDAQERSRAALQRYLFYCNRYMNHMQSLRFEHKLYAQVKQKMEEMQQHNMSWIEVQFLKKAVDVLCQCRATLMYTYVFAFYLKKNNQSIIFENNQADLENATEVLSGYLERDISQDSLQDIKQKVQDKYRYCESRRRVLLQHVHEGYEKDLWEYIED
UniProt Q86WV6: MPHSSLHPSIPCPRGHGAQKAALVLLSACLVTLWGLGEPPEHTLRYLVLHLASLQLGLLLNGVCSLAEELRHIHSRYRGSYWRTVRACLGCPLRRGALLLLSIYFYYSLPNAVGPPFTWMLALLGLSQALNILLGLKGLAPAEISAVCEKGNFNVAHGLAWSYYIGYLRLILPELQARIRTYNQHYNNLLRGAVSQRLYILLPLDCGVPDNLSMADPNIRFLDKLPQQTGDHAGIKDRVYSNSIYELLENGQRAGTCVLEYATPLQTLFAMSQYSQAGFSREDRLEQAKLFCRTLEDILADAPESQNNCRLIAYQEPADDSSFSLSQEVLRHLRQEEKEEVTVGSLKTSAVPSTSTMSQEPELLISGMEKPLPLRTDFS
UniProt Q7Z434: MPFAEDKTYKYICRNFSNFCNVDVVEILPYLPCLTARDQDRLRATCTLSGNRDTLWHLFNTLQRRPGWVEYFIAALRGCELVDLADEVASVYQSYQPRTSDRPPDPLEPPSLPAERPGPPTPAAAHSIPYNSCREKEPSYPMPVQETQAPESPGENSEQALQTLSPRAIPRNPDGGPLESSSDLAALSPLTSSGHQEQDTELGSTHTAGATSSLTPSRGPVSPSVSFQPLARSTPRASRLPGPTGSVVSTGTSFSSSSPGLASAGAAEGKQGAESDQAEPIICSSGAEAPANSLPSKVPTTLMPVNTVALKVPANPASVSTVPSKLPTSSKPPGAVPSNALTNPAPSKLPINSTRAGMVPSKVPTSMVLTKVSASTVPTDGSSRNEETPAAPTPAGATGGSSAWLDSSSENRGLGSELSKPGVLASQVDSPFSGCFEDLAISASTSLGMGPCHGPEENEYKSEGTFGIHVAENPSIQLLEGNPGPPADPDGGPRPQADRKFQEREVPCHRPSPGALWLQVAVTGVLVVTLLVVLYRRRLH

Columns and labels:
[1] = target: cGAS (endogenous, murine MLFs and BMDCs) (mouse (endogenous in MLFs and BMDCs)) (UniProt Q8C6L5); test: co-IP
FLAG-ARIH1 (human) [2] = target: FLAG-ARIH1 (human) (UniProt Q9Y4X5); test: co-IP; HEK293 cells transfected for 24 h with FLAG- and HA-tagged plasmids; Nonidet P-40 lysis buffer (20 mM Tris-HCl pH 7.4-7.5, 150 mM NaCl, 1 mM EDTA, 1% NP-40); IP with anti-FLAG, blot with anti-HA
FLAG-ARIH1 (human) [3] = target: FLAG-ARIH1 (human) (UniProt Q9Y4X5); test: co-IP

- binding [1]: binds
Substance: ARIH1 (endogenous, murine MLFs and BMDCs) (from UniProt Q9Z1K5 1-555)

- binding (FLAG-ARIH1 (human) [2]): no binding
Substance: HA-MITA (from UniProt Q86WV6 1-379)

- binding (FLAG-ARIH1 (human) [3]): no binding
Substance: HA-MAVS (from UniProt Q7Z434 1-540)
